Results: patent US20100323904, “Transcription chip” (published 2010)

Legend:
NF-kB p50 = target: T1, NF-kB p50 (UniProt P19838); assay: binding assay; settings: 5'-NH2(CH2)12 on top strand, immobilized on chip; array fluorescence immunoassay, 100 ng/mL; purified recombinant protein; protein details: Promega
T1 sequence (looked up, limits assumed): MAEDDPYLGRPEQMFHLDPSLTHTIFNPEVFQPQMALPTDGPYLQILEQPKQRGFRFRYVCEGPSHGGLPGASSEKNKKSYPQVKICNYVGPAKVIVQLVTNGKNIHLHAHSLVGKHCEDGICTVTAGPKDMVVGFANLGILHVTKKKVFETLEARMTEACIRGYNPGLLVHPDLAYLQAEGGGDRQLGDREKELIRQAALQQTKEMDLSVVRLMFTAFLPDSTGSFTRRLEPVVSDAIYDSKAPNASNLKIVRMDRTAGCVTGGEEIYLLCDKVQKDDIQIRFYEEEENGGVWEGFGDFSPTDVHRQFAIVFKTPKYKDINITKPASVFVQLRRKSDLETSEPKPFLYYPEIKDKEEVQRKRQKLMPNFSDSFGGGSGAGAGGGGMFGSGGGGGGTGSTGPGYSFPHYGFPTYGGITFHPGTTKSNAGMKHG

[1] = target: T2, NF-kB p50 (endogenous, HeLa) (Homo sapiens) (UniProt P19838); assay: ELISA; settings: 5'-NH2(CH2)12 on top strand, immobilized on chip; HeLa extract; stronger signal after TNF-alpha stimulation; protein in an extract
T2 sequence (looked up, limits assumed): T1 sequence (looked up, limits assumed)

Sequence | binding result (NF-kB p50) | binding result [1]
GGGAGCTGAGTAAGAACACTGTGTTCTATGCATGCAGAACACTGTGTTCTCATG / CATGAGAACAGACTGTTCTGCATGCATAGAACAGACTGTTCTTACTCAGCTCCC [GRE] | no binding | 
GGGAGCTGAGTAAGGTCACAGTGACCTATGCATGCAGGTCACAGTGACCTCATG / TCAGGTCACAGTGACCTGATCTCAGGTCACAGTGACCTTTCACGAGGTAC [ERE] | no binding | 
GGGAGCTGAGTAGGGAAATTCCATGCATGCGGGAAATTCCCATG (double strand) [PRD II (two copies)] |  | binds

For part of these data: Results from cells or extracts need not show a direct contact. Where a protein sequence is shown, tags need not be part of it. For part of these data: The exact form of at least one protein or probe is not confirmed. For part of these data: A negative result means that nothing was seen under these conditions.
